Experimental data as given in publication PMC7449975.
These are yes or no findings as the source states them, for the method shown. Binding seen in cells or lysates may run through a third protein. Some results given as binding are weak or reduced against the parent protein; the word gives no strength.

Amino acid sequences for entries named in this document (tags omitted).
UniProt Q9NVP2: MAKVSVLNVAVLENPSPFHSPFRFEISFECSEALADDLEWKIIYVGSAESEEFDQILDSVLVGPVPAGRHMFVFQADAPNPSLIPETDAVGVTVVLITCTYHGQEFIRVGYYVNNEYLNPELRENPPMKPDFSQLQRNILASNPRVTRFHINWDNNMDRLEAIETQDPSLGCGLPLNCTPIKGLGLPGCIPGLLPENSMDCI
UniProt P50750: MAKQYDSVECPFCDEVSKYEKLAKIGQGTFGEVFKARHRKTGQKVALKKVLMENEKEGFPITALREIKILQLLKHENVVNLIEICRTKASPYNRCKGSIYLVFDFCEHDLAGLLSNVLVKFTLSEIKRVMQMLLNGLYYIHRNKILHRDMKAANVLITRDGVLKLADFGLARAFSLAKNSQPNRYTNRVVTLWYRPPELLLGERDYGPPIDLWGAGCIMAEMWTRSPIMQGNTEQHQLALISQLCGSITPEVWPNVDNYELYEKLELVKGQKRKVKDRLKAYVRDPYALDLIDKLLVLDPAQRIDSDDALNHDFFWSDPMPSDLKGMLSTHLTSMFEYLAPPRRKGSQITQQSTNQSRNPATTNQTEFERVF

Biological target: endogenous ASF1B (human (endogenous in HeLa)) (UniProt Q9NVP2)
Assay: co-IP; normal HeLa cells, endogenous proteins; anti-ASF1B antibody or anti-CDK9 antibody (Novus Biologicals); Western blot

binding: binds
Substance: cyclin-dependent kinase 9 (from UniProt P50750 1-372)
